PubChem BioAssay AID652259 – Drosophila RNAi Screening Center, 2013

- Aim: 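Genome-wide hunt for genes that control Wingless pathway activity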 (primary screen)
- System: Drosophila clone 8 imaginal disc epithelial cells
- Knock-down reagent: long dsRNA against Drosophila genes
- Challenge: pathway stimulated by co-transfected Wingless expression plasmid
- Measurement: 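Dual luciferase reads per well after Wingless plasmid stimulation: reporter firefly light and Renilla control light; activity is firefly divided by Renilla, a ratio not deposited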
- Direction: firefly reporter light: higher = more Wg reporter light, before normalisation; Renilla control light: higher = more transfected or surviving cells
- Hit rule: 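a knock-down is a candidate when at least two out of four statistical tests show it departing from its plate mean; one test alone signals a weak candidate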
- Meaning of the calls: active = candidate regulator (raises or lowers reporter); inactive = not a candidate
The screen tested about 22,000 reagents; shown is a random part of those that have a named target and a result. Of all reagents, 233 (1.1%) are marked active. 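Light values are raw, unnormalised plate reads; the ratio scores behind the reporter calls were not deposited.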 Unmarked entries are inactive. A plus sign joins genes that one reagent is predicted to hit. The record does not give: the amount of reagent, the time to read-out, the dose of the treatment.

Silencing of CG6144 [DRSC02934] resulted in: firefly reporter light, replicate 1 = 2801; Renilla control light, replicate 1 = 340.
Against CG34377 [DRSC13559], the values are firefly reporter light, replicate 1 = 3193; Renilla control light, replicate 1 = 1585.
CG34377 [DRSC14708] showed firefly reporter light, replicate 1 = 36843; Renilla control light, replicate 1 = 5928.
CG34377 [DRSC14709] gave firefly reporter light, replicate 1 = 33405; Renilla control light, replicate 1 = 5734.
With knock-down of CG34377 [DRSC14710] the results were firefly reporter light, replicate 1 = 33781; Renilla control light, replicate 1 = 4616.
With knock-down of CG34377 [DRSC14711] the results were firefly reporter light, replicate 1 = 32517; Renilla control light, replicate 1 = 4762.
After knock-down of CG31368 [DRSC14949], the screen gave firefly reporter light, replicate 1 = 12632; Renilla control light, replicate 1 = 3058.
CG31368 [DRSC14951] showed firefly reporter light, replicate 1 = 6474; Renilla control light, replicate 1 = 2019.
Mesh1 [DRSC14433] showed firefly reporter light, replicate 1 = 4597; Renilla control light, replicate 1 = 1926.
CG8060 [DRSC07064] gave firefly reporter light, replicate 1 = 15456; Renilla control light, replicate 1 = 4107.
ppk3 [DRSC04275] showed firefly reporter light, replicate 1 = 2876; firefly reporter light, replicate 2 = 7004; Renilla control light, replicate 1 = 988; Renilla control light, replicate 2 = 2812.
Depletion of CG12929 [DRSC06242] gave: firefly reporter light, replicate 1 = 4176; firefly reporter light, replicate 2 = 10017; Renilla control light, replicate 1 = 1536; Renilla control light, replicate 2 = 4192.
CG32706 + CG6999 [DRSC18412] scored firefly reporter light, replicate 1 = 22875; Renilla control light, replicate 1 = 15973.

A run of entries from the list above:
CG34377 [DRSC14711] | firefly reporter light, replicate 1: 32517; Renilla control light, replicate 1: 4762
CG31368 [DRSC14949] | firefly reporter light, replicate 1: 12632; Renilla control light, replicate 1: 3058
CG31368 [DRSC14951] | firefly reporter light, replicate 1: 6474; Renilla control light, replicate 1: 2019
Mesh1 [DRSC14433] | firefly reporter light, replicate 1: 4597; Renilla control light, replicate 1: 1926

The listing continues:
Silencing of CG9915 [DRSC20217] gave: firefly reporter light, replicate 1 = 24932; Renilla control light, replicate 1 = 8208.
After knock-down of CG9915 [DRSC21565], the record shows firefly reporter light, replicate 1 = 9.48e5; firefly reporter light, replicate 2 = 9.31e5; Renilla control light, replicate 1 = 5.03e5; Renilla control light, replicate 2 = 4.73e5.
Ugt303A1 [DRSC15641] scored firefly reporter light, replicate 1 = 16824; Renilla control light, replicate 1 = 4360.
fray [DRSC16950] showed firefly reporter light, replicate 1 = 12765; Renilla control light, replicate 1 = 2672.
Silencing of Ntmt [DRSC06624] came out at: firefly reporter light, replicate 1 = 4003; firefly reporter light, replicate 2 = 8656; Renilla control light, replicate 1 = 1255; Renilla control light, replicate 2 = 4272.
Depletion of CG14369 [DRSC14831] resulted in: firefly reporter light, replicate 1 = 19091; Renilla control light, replicate 1 = 4313.
Depletion of spab [DRSC07112] resulted in: firefly reporter light, replicate 1 = 3648; firefly reporter light, replicate 2 = 8864; Renilla control light, replicate 1 = 1321; Renilla control light, replicate 2 = 4157.
Depletion of mRpS7 [DRSC02814] resulted in: firefly reporter light, replicate 1 = 12288; Renilla control light, replicate 1 = 1584.
Knock-down of Sems [DRSC11626] gave: firefly reporter light, replicate 1 = 20066; Renilla control light, replicate 1 = 7763.
Against Osi3 [DRSC12175] the deposit lists firefly reporter light, replicate 1 = 14947; Renilla control light, replicate 1 = 3473.
pea [DRSC07120] showed firefly reporter light, replicate 1 = 11987; Renilla control light, replicate 1 = 1964.
Depletion of CG42268 [DRSC10171] resulted in: firefly reporter light, replicate 1 = 5328; Renilla control light, replicate 1 = 2537.
Against CG42268 [DRSC10702], the entry reads firefly reporter light, replicate 1 = 5356; Renilla control light, replicate 1 = 2240.
For CG42268 [DRSC21797], the entry reads firefly reporter light, replicate 1 = 3.02e5; firefly reporter light, replicate 2 = 3.59e5; Renilla control light, replicate 1 = 1.25e5; Renilla control light, replicate 2 = 1.43e5.
